# Data as given in PubChem BioAssay AID1259308 (NCATS, 2017).
# Purpose: 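Candidate targets for better recombinant protein yield in mammalian cells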 (primary screen)
# Cells: human HEK293 embryonic kidney cells stably expressing firefly luciferase (HEK-CMV-Luc2-Hygro)
# Reagents: single siRNA against human genes, 0.8 pmol siRNA per well
# Timing: 72 h
# Measurement: 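Luciferase light (ONE-Glo) measured on one replicate plate set and viability (CellTiter-Glo) on the other, scaled to a negative control siRNA, with robust z-scores and luciferase per cell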
# Scale: total luciferase, z-score: higher = more reporter protein produced
# Call rule: 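Active when the median/MAD z-score for overall luciferase is greater than 3; a gene was taken forward for validation with new siRNAs if at least two of its three siRNAs passed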
# Calls: active = raised luciferase; inactive = no rise
# The whole screen tested about 59,000 reagents; below is an unselected part. About 1,510 of them (2.6%) count as active. 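Calls use total luciferase alone and ignore viability, so some active siRNAs may act by altering cell number.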 A number with no mark means an inactive call. Further read-outs or replicates are left out here. Reagent sequences are not shown.
target gene,PubChem SID,"total luciferase, z-score"
RPS26P35,SID160733419,-1.95
RPS26P35,SID160767996,-2.72
RPS26P35,SID160767997,-1.85
LOC401410 (retired record),SID160733343,1.82
LOC401410 (retired record),SID160767276,1.77
LOC401410 (retired record),SID160767277,-0.924
KRTDAP,SID160765880,2.99
KRTDAP,SID160765882,-0.518
KRTDAP,SID160765883,0.881
SNTN,SID160732477,-0.874
SNTN,SID160757143,-0.473
SNTN,SID160757145,0.795
OR52H1,SID160766360,-0.548
OR52H1,SID160766361,-0.887
OR52H1,SID160766363,-0.0981
GPR132,SID160739331,0.159
GPR132,SID160739332,-0.591
GPR132,SID160739333,-0.0394
SHQ1,SID160743101,1.68
SHQ1,SID160743102,0.67
SHQ1,SID160743103,2.03
NUP35,SID160756858,0.373
NUP35,SID160756859,-0.423
NUP35,SID160756860,-0.843
TRMT10B,SID160759614,-0.47
TRMT10B,SID160759615,-0.297
TRMT10B,SID160759616,-0.241
AJUBA,SID160732052,-0.206
AJUBA,SID160753051,0.759
AJUBA,SID160753052,0.853
HAX1,SID160728462,-0.606
HAX1,SID160732278,-0.496
HAX1,SID160732279,0.0431
GPX8,SID160768255,-2.22
GPX8,SID160768256,1.12
GPX8,SID160768258,-1.66

Reformatted: 7 of the entries above.
KRTDAP [SID160765883]
- total luciferase, z-score: 0.881

SNTN [SID160732477]
- total luciferase, z-score: -0.874

SNTN [SID160757143]
- total luciferase, z-score: -0.473

SNTN [SID160757145]
- total luciferase, z-score: 0.795

OR52H1 [SID160766360]
- total luciferase, z-score: -0.548

OR52H1 [SID160766361]
- total luciferase, z-score: -0.887

OR52H1 [SID160766363]
- total luciferase, z-score: -0.0981

Further results:
target gene,PubChem SID,"total luciferase, z-score"
EID1,SID160736825,0.122
EID1,SID160736826,-0.269
EID1,SID160736827,-1.21
FGF2,SID160730798,1.93
FGF2,SID160730799,0.144
FGF2,SID160765002,1.5
RHOG,SID160719817,-0.104
RHOG,SID160719828,-0.755
RHOG,SID160719839,-0.731
GARIN4,SID160758857,1.01
GARIN4,SID160758858,-0.666
GARIN4,SID160758860,-0.14
LMOD1,SID160737008,-0.235
LMOD1,SID160737009,-1.62
LMOD1,SID160737010,-1.73
GUCA1B,SID160774727,-0.658
GUCA1B,SID160774728,-0.0719
GUCA1B,SID160774729,-0.876
ATP6V1G3,SID160730584,-0.0133
ATP6V1G3,SID160756590,-0.35
ATP6V1G3,SID160756592,0.268
IDE,SID160775529,-1.36
IDE,SID160775530,0.157
IDE,SID160775531,-1.41
SULT1E1,SID160717463,-1.19
SULT1E1,SID160717464,-1.19
SULT1E1,SID160731804,1.01
EGR1,SID160758900,0.764
EGR1,SID160758911,2.58
EGR1,SID160758922,-0.171
COPE,SID160730396,0.524
COPE,SID160730411,0.448
COPE,SID160730535,1.5
JPH2,SID160724487,0.726
JPH2,SID160724488,0.492
JPH2,SID160724489,-0.254
STMND1,SID160733334,-0.377
STMND1,SID160767208,-0.0768
STMND1,SID160767209,0.265
